Read-outs that look alike come from different tables or passages of the source. Results are given in words; binding and its absence hold for the method and conditions named. In cells and extracts the contact can be indirect. Some binding calls cover weakened binding; strength is not graded here. For some assays here: Where a sequence is shown, tags or fusion partners need not be part of it. Values belong to the molecule of their own block, whether it stands above or below them.
Legend:
Test in all cases: co-IP
[1] = biological target: HOXB13 (human (endogenous in LNCaP and PC-3)) (UniProt Q92826)
HA-HOXB13-G84E = HA-HOXB13-G84E (UniProt Q92826)
[2] = biological target: HOXB13 (human (endogenous in LNCaP and PC-3)) (UniProt Q92826); remark: listed apart in the source
HA-HOXB13-WT = HA-HOXB13-WT (UniProt Q92826)
Flag-tagged HDAC1 = Flag-tagged HDAC1 (UniProt Q13547)
Flag-tagged HDAC3 = Flag-tagged HDAC3 (UniProt O15379)
HOXB13 aa70-284 = HOXB13 aa70-284 (UniProt Q92826)
HOXB13 aa210-284 = HOXB13 aa210-284 (UniProt Q92826)
HOXB13 aa150-280 = HOXB13 aa150-280 (UniProt Q92826)
[3] = biological target: Flag-HOXB13 ΔHOX (aa210-270) (UniProt Q92826)
[4] = biological target: Flag-HOXB13 ΔMEIS (aa70-150) (UniProt Q92826)
[5] = biological target: HOXB13 (co-expressed, tag not stated) (UniProt Q92826)
Flag-HOXB13 FL = Flag-HOXB13 FL (UniProt Q92826)
HA-HDAC3 aa1-180 = HA-HDAC3 aa1-180 (UniProt O15379)
HA-HDAC3 aa1-120 = HA-HDAC3 aa1-120 (UniProt O15379)
HA-HDAC3 aa1-316 = HA-HDAC3 aa1-316 (UniProt O15379)
HA-HDAC3 aa120-428 = HA-HDAC3 aa120-428 (UniProt O15379)
HA-HDAC3 FL (aa1-428) = HA-HDAC3 FL (aa1-428) (UniProt O15379)
V5-NCoR1 FL, O75376 = details: remark: other sources report otherwise

Protein sequences, listed by entry. Tags and fused reporters are not part of them. Lines headed by an entry give the natural chain unless they say otherwise; changes in a name come on top.
UniProt O75376, whole entry: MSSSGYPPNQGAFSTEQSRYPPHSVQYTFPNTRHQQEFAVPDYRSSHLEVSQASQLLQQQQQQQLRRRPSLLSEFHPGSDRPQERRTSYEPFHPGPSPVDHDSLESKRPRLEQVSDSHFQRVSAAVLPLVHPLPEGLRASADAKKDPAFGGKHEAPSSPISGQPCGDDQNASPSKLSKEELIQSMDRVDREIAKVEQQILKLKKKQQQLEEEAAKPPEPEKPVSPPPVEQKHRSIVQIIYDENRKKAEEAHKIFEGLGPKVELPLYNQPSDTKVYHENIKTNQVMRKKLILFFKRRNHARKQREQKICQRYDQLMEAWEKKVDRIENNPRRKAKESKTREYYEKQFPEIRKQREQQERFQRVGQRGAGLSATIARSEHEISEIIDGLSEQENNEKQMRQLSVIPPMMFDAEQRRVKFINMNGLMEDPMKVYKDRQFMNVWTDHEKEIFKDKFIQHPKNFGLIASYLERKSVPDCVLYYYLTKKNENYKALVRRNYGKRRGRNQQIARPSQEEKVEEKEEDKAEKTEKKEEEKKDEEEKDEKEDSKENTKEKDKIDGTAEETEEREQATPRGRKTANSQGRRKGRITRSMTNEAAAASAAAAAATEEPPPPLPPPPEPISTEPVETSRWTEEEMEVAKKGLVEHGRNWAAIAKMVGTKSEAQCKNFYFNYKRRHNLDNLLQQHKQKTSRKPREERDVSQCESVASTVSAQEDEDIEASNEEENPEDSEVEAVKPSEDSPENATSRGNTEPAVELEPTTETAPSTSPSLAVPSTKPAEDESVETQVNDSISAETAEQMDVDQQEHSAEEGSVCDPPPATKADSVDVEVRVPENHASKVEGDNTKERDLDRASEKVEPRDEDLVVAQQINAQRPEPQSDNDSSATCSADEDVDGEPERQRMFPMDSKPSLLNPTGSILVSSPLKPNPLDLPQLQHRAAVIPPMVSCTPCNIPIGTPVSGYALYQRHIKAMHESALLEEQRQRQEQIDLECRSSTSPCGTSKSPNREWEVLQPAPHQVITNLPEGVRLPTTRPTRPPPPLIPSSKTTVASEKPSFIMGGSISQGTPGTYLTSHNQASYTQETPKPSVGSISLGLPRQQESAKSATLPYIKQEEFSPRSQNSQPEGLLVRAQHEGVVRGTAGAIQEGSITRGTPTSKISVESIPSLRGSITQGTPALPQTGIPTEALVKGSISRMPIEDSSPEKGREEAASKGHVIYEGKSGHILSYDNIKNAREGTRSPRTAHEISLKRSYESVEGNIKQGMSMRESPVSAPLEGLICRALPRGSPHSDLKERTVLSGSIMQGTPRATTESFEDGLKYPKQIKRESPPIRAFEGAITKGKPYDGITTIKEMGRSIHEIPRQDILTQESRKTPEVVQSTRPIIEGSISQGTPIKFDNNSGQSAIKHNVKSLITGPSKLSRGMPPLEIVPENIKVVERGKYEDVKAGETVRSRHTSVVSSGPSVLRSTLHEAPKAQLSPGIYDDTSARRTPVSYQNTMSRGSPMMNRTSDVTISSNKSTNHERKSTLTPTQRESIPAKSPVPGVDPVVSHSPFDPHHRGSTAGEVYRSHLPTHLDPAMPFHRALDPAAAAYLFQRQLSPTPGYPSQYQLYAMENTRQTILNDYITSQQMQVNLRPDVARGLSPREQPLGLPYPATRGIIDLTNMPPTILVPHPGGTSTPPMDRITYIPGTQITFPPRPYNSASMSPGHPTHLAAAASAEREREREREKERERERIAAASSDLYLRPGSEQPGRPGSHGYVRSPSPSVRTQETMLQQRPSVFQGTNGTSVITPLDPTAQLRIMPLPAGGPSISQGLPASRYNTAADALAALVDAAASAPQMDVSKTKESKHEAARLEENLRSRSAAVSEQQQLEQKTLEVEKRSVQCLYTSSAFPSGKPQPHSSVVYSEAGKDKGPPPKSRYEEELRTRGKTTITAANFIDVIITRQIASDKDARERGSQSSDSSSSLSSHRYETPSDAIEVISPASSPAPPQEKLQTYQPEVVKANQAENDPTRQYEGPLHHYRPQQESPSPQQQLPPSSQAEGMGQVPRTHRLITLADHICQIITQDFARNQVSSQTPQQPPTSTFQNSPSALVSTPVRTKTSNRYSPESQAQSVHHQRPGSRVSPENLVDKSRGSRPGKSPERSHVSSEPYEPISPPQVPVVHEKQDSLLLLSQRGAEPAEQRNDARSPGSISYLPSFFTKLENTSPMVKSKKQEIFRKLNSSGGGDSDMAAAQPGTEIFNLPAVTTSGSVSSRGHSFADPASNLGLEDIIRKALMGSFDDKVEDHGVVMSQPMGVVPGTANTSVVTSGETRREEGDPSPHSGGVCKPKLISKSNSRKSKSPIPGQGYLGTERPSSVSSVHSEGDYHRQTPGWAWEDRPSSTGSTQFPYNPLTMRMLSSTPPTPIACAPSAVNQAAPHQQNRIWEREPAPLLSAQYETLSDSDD

Molecule: HDAC3 (from UniProt O15379 1-428) (enzyme)
- binding [1]: binds
- binding (HA-HOXB13-G84E): binds weakly
- binding [2]: binds
- binding (HA-HOXB13-WT): binds

Molecule: androgen receptor (AR) (from UniProt P10275 1-920)
- binding (HA-HOXB13-G84E): binds
- binding (HA-HOXB13-WT): binds

Molecule: HOXB13 (co-expressed, tag not stated) (from UniProt Q92826 1-284)
- binding (HA-HDAC3 aa1-180): no binding
- binding (HA-HDAC3 aa1-120): no binding
- binding (HA-HDAC3 aa1-316): no binding
- binding (HA-HDAC3 aa120-428): binds
- binding (HA-HDAC3 FL (aa1-428)): binds

B1: HDAC3 (co-expressed, tag not stated), O15379 1-428 (enzyme)
chain: MAKTVAYFYDPDVGNFHYGAGHPMKPHRLALTHSLVLHYGLYKKMIVFKPYQASQHDMCRFHSEDYIDFLQRVSPTNMQGFTKSLNAFNVGDDCPVFPGLFEFCSRYTGASLQGATQLNNKICDIAINWAGGLHHAKKFEASGFCYVNDIVIGILELLKYHPRVLYIDIDIHHGDGVQEAFYLTDRVMTVSFHKYGNYFFPGTGDMYEVGAESGRYYCLNVPLRDGIDDQSYKHLFQPVINQVVDFYQPTCIVLQCGADSLGCDRLGCFNLSIRGHGECVEYVKSFNIPLLVLGGGGYTVRNVARCWTYETSLLVEEAISEELPYSEYFEYFAPDFTLHPDVSTRIENQNSRQYLDQIRQTIFENLKMLNHAPSVQIHDVPADLLTYDRTDEADAEERGPEENYSRPEAPNEFYDGDHDNDKESDVEI
- binding (V5-NCoR1 FL, O75376): binds

Now from value to molecule:

- binding (Flag-tagged HDAC1): binds
- binding (Flag-tagged HDAC3): binds
Molecule: HOXB13 (from UniProt Q92826 1-284)

- binding (HOXB13 aa70-284): binds
- binding (HOXB13 aa210-284): binds weakly
- binding (HOXB13 aa150-280): binds weakly
- binding [3]: binds
- binding [4]: no binding
- binding [5]: binds
- binding (Flag-HOXB13 FL): binds
Molecule: HDAC3 (co-expressed, tag not stated) (from UniProt O15379 1-428) (enzyme)

- binding (HA-HOXB13-G84E): binds weakly
- binding (HA-HOXB13-WT): binds
Molecule: HDAC1 (from UniProt Q13547 1-482) (enzyme)

Source: paper doi:10.1101/2021.10.04.463081
